Test results reported in the supplement of paper PMC10849652.
This is one part of the list.

Amino acid sequences for entries named in this document (tags omitted). A change or cut given only in a name is not applied to a line headed by its entry.
UniProt Q13541: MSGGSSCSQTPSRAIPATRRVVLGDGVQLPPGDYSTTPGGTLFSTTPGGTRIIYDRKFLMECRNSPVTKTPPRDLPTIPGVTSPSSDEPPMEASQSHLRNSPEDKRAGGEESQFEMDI
UniProt Q96EB1: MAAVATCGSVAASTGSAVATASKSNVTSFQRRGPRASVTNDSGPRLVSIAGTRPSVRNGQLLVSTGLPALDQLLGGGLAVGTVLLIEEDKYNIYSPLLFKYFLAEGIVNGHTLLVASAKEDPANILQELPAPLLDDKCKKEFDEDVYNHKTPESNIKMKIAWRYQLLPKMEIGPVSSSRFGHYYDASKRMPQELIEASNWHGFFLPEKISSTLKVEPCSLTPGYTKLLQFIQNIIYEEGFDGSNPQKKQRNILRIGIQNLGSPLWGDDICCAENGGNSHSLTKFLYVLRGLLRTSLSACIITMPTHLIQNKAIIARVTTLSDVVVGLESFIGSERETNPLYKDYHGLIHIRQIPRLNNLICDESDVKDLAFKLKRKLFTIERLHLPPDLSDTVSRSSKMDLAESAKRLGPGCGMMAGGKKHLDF
UniProt Q53HC9: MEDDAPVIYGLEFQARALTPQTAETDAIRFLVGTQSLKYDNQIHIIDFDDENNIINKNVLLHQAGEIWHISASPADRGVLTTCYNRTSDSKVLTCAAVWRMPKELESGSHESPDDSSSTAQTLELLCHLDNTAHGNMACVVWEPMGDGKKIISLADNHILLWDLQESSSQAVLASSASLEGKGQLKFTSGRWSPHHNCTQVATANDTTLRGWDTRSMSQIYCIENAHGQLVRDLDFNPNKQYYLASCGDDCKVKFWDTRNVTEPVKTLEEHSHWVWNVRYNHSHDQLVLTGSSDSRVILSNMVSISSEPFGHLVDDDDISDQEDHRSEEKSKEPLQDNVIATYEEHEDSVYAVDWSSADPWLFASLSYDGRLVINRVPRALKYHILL
UniProt P06733, whole entry, looked up: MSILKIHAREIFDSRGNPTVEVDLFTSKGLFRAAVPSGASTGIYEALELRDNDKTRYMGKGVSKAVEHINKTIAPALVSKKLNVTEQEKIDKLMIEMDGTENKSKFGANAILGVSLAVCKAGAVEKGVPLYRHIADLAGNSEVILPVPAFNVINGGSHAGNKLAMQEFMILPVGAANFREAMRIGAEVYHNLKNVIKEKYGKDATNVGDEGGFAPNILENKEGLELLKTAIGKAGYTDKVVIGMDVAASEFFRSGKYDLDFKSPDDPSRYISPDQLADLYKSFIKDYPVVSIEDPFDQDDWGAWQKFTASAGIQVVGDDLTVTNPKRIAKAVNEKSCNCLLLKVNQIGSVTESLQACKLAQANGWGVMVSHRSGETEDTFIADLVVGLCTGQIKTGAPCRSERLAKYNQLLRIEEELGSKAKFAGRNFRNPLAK
UniProt O15372, whole entry, looked up: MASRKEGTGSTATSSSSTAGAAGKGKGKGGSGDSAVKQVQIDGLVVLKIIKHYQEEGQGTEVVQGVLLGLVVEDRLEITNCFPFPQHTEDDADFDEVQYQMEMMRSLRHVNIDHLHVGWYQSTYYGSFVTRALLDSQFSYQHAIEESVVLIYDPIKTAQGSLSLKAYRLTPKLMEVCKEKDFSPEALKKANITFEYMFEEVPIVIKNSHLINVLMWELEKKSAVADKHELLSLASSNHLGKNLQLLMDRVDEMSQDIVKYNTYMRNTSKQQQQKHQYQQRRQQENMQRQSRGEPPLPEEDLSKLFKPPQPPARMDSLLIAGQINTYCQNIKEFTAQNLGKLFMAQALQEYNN
UniProt Q92979: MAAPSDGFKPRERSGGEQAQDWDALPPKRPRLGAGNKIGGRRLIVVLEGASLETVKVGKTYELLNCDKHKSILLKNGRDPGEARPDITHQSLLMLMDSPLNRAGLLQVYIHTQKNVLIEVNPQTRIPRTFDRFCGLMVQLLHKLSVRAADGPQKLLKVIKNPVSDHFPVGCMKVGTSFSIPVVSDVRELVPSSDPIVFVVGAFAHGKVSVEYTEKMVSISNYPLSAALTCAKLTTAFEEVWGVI
UniProt Q14152, whole entry, looked up: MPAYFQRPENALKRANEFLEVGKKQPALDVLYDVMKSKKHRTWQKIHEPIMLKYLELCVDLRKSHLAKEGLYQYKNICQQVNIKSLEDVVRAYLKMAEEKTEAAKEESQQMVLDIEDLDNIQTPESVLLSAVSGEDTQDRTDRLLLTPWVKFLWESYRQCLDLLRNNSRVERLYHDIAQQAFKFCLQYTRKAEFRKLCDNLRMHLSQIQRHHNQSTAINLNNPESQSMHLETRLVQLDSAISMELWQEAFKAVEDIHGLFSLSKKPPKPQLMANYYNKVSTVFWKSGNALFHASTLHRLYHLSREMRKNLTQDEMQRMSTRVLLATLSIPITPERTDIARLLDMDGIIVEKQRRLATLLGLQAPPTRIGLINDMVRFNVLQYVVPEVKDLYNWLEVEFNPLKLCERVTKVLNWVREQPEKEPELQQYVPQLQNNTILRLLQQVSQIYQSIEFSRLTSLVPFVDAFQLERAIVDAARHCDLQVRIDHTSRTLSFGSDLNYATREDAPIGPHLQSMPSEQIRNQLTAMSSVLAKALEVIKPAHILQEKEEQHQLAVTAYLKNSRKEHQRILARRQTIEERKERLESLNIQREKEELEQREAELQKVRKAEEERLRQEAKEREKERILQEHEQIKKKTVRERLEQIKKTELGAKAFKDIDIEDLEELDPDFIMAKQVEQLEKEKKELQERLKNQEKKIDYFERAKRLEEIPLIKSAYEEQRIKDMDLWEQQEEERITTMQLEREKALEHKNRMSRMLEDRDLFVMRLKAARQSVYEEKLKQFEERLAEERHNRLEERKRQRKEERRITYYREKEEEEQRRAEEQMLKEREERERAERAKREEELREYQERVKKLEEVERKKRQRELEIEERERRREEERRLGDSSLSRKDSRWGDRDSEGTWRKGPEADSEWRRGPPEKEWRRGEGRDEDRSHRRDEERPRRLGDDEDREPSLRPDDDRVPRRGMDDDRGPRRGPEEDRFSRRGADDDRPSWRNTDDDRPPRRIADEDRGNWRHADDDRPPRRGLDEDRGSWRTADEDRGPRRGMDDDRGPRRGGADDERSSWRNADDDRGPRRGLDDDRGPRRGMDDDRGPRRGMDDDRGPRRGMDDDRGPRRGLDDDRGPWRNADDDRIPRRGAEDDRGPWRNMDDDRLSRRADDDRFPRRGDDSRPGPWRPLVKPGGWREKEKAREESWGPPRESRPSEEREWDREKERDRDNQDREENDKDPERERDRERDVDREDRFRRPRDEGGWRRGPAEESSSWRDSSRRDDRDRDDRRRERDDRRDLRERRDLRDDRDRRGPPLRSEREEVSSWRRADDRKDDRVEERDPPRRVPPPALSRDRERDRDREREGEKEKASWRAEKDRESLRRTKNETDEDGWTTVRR
UniProt Q15369, whole entry, looked up: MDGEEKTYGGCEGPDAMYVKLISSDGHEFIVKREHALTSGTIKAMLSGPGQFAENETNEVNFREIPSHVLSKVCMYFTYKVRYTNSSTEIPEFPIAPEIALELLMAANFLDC
UniProt Q7Z2Z2: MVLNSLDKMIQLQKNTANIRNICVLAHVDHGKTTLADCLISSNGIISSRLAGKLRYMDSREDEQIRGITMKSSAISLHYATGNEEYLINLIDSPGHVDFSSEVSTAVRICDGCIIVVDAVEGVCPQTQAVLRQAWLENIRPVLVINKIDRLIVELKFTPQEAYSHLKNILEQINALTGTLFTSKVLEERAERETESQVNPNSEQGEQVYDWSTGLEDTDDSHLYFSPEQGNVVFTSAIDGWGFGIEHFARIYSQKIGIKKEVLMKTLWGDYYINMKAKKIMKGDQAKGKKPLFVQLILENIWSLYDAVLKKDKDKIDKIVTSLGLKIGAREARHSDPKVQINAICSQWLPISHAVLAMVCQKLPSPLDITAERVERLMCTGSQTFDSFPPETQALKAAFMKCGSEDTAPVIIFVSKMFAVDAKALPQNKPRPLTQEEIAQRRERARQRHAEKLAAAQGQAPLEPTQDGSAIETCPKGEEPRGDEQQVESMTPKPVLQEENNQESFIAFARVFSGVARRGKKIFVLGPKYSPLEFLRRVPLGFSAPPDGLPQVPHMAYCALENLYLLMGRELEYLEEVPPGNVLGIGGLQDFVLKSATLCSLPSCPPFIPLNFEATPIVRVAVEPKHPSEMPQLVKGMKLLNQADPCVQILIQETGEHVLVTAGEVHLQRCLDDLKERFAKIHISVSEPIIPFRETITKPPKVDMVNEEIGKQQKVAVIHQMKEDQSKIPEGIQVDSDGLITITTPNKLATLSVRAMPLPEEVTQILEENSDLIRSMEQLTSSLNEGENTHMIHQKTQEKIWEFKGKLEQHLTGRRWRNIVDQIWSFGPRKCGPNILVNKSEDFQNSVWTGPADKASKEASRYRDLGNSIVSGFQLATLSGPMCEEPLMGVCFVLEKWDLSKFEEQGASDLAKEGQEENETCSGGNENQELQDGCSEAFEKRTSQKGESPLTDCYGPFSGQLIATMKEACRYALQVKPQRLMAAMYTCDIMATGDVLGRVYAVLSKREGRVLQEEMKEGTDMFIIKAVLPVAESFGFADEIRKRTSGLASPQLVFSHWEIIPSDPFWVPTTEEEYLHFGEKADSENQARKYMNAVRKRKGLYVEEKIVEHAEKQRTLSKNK
UniProt O75354: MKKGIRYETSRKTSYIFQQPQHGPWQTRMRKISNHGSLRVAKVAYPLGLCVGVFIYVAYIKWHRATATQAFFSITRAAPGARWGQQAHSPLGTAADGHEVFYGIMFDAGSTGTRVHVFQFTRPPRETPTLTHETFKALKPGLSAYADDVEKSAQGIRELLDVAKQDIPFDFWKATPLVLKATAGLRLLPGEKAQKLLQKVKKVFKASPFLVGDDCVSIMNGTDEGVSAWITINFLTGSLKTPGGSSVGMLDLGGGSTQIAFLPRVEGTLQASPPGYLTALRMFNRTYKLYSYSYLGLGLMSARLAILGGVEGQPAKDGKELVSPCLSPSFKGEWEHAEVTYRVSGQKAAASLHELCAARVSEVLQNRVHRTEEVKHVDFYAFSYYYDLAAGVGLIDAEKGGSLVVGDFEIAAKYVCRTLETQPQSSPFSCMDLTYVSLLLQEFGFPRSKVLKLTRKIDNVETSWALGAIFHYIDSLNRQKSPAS
UniProt O60573: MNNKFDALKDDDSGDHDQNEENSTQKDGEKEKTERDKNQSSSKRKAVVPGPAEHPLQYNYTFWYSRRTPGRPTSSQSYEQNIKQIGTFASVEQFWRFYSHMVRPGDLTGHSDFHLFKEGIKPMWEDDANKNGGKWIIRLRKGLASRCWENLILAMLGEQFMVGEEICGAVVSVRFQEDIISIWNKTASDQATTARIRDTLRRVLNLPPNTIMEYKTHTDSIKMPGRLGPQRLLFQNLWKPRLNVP
UniProt P54852: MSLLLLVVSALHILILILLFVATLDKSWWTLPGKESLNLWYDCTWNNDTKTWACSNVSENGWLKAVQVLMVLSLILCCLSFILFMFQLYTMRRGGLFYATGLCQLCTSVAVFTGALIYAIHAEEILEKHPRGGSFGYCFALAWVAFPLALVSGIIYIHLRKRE
UniProt O75822, whole entry, looked up: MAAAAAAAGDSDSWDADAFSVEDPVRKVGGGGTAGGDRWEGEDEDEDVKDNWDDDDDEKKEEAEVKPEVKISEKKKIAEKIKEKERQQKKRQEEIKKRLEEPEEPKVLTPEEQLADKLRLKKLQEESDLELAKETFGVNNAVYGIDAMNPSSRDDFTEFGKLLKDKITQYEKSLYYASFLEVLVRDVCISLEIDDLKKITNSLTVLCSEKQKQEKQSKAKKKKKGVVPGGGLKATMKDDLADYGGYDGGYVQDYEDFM
UniProt Q8N6R0: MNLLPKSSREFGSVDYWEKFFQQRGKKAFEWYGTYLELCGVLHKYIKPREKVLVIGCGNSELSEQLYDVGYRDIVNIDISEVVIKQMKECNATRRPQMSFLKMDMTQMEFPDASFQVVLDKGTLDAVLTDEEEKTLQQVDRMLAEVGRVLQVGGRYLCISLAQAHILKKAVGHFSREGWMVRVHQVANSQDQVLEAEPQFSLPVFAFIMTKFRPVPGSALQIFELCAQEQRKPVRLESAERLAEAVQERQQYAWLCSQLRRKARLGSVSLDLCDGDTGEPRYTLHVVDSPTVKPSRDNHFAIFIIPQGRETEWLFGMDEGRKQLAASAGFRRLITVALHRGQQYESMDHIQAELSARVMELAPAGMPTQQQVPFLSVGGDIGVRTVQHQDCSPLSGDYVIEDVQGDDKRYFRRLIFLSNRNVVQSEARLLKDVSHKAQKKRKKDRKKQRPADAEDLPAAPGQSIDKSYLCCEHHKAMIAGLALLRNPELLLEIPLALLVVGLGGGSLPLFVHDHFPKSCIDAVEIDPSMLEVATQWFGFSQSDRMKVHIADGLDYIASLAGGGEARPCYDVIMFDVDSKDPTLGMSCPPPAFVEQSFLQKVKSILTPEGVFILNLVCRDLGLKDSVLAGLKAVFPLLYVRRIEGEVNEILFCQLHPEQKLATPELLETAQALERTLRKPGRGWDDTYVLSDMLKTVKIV

Legend:
Test in all cases: log2 fold change, soluble protein after heating vs DMSO (PISA); higher = thermal stabilisation; K562 cells, 10 uM, 30 min; active = over 0.2 and 3.5 SD of the protein, either way, in both replicates (recomputed)
[1] = compound: NC(=O)Nc1cc(-c2cccc(F)c2)sc1C(=O)N[C@H]1CCCNC1
Method in brief: (§1)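 Aliquots of K562 cells (2×10^6 cells/mL) treated with 10 μM compound for 30 min were heated for 3 min over 48°C-58°C. After pooling and extraction in PBS with 0.5% NP-40 at 4°C, soluble protein from a 21,000xg, 90 min spin was quantified by TMTpro 16plex LC-MS/MS with channel sums equalised. Thermal stability is expressed against control samples, from duplicates, as a log2 fold change.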

[2] = compound: NC(=O)c1cnc(N[C@@H]2CCCC[C@@H]2N)nc1Nc1cccc(-n2nccn2)c1
Method in brief: as §1

[3] = compound: NC1(c2ccc(-c3nc4ccn5c(=O)[nH]nc5c4cc3-c3ccccc3)cc2)CCC1
Method in brief: as §1

[4] = compound: NCC(=O)Nc1ccc(-n2nc(C(F)(F)F)cc2-c2ccc3c(ccc4ccccc43)c2)cc1
Method in brief: as §1

[5] = compound: Nc1ccccc1NC(=O)c1ccc(CNC(=O)OCc2cccnc2)cc1 [entinostat]
Method in brief: as §1

[6] = compound: O=C(CCCCCCC(=O)Nc1ccccc1)NO [vorinostat]
Method in brief: as §1

[7] = compound: O=C(CCCCCCNC(=O)c1cnc(N(c2ccccc2)c2ccccc2Cl)nc1)NO [citarinostat]
Method in brief: as §1

[8] = compound: O=C(O)c1ccc2c(c1)nc(Nc1cccc(Cl)c1)c1ccncc12 [silmitasertib]
Method in brief: as §1

[9] = compound: O=C1NC(=O)C(c2cnc3ccccn23)=C1c1cn2c3c(cc(F)cc13)CN(C(=O)N1CCCCC1)CC2
Method in brief: as §1

[10] = compound: c1cc(OCCN2CCCCC2)cc(-c2n[nH]c3ccc(-c4nnc[nH]4)cc23)c1
Method in brief: as §1

Target | log2 fold change [1] | log2 fold change [2] | log2 fold change [3] | log2 fold change [4] | log2 fold change [5] | log2 fold change [6] | log2 fold change [7] | log2 fold change [8] | log2 fold change [9] | log2 fold change [10]
EIF4EBP1 (UniProt Q13541) | inactive: -0.015 | inactive: -0.029 | inactive: 0.02 | inactive: 0.061 | inactive: -0.018 | inactive: -0.026 | inactive: 0.009 | inactive: -0.026 | inactive: -0.055 | inactive: 0.076
ELP5 isoform 4 (UniProt Q8TE02) | inactive: -0.022 | inactive: -0.08 | inactive: -0.06 | inactive: 0 | inactive: -0.019 | inactive: -0.004 | inactive: -0.046 | inactive: -0.018 | inactive: -0.026 | inactive: -0.058
ELP4 (UniProt Q96EB1) | inactive: -0.031 | inactive: 0.073 | inactive: -0.028 | inactive: -0.077 | inactive: -0.026 | inactive: -0.005 | inactive: -0.004 | inactive: -0.046 | inactive: 0.011 | inactive: -0.051
EIPR1 (UniProt Q53HC9) | inactive: -0.038 | inactive: 0.001 | inactive: -0.054 | inactive: -0.016 | inactive: 0 | inactive: 0.007 | inactive: -0.012 | inactive: 0.04 | inactive: -0.068 | inactive: 0.126
ENO1 isoform 2 (UniProt P06733) | inactive: 0.015 | inactive: 0.042 | inactive: -0.006 | inactive: 0.033 | inactive: -0.076 | inactive: 0.138 | inactive: 0.128 | inactive: -0.078 | inactive: -0.1 | inactive: 0.113
EIF4A2 isoform 2 (UniProt Q14240) | inactive: 0.005 | inactive: -0.053 | inactive: -0.049 | inactive: -0.04 | inactive: 0.044 | inactive: 0.023 | inactive: 0.056 | inactive: -0.005 | inactive: -0.006 | inactive: -0.064
EIF3H (UniProt O15372) | inactive: -0.007 | inactive: -0.041 | inactive: -0.06 | inactive: -0.011 | inactive: 0.034 | inactive: 0.019 | inactive: 0.061 | inactive: 0.058 | inactive: 0.031 | inactive: -0.084
EMG1 (UniProt Q92979) | inactive: 0.035 | inactive: 0.021 | inactive: 0.08 | inactive: 0.045 | inactive: 0.003 | inactive: -0.024 | inactive: -0.013 | inactive: 0.05 | inactive: 0.067 | inactive: -0.062
ELAC2 (UniProt Q9BQ52) | inactive: -0.035 | inactive: 0.008 | inactive: -0.029 | inactive: 0.02 | inactive: -0.038 | inactive: -0.089 | inactive: -0.001 | inactive: 0.004 | inactive: -0.021 | inactive: -0.02
ELOF1 (UniProt P60002) | inactive: -0.158 | inactive: 0.061 | inactive: 0.233 | inactive: 0.082 | inactive: 0.018 | inactive: -0.064 | inactive: 0.055 | inactive: 0.129 | inactive: -0.1 | inactive: -0.055
EIF3A (UniProt Q14152) | inactive: -0.059 | inactive: -0.002 | inactive: -0.119 | inactive: -0.046 | inactive: 0.09 | inactive: 0.086 | inactive: 0.054 | inactive: 0.051 | inactive: 0.111 | inactive: -0.094
ELOC (UniProt Q15369) | inactive: -0.008 | inactive: -0.011 | inactive: -0.015 | inactive: -0.008 | inactive: 0.024 | inactive: 0.024 | inactive: 0.036 | inactive: -0.007 | inactive: -0.107 | inactive: -0.053
EFL1 (UniProt Q7Z2Z2) | inactive: 0.001 | inactive: -0.023 | inactive: -0.106 | inactive: -0.026 | inactive: 0.025 | inactive: 0.071 | inactive: 0.047 | inactive: 0.017 | inactive: -0.025 | inactive: -0.023
ENTPD6 (UniProt O75354) | inactive: -0.212 | inactive: 0.014 | inactive: -0.071 | – | inactive: -0.075 | inactive: -0.001 | inactive: 0.209 | inactive: -0.012 | inactive: 0.222 | inactive: 0.08
ELAC1 (UniProt Q9H777) | inactive: 0.014 | inactive: 0.053 | – | inactive: -0.082 | inactive: -0.202 | inactive: 0.285 | inactive: 0.05 | – | inactive: 0.075 | inactive: -0.05
EPB41, A0A2R8Y6D0 | inactive: -0.082 | inactive: -0.083 | inactive: 0.059 | inactive: 0.057 | inactive: 0.103 | inactive: -0.114 | inactive: -0.078 | inactive: 0.165 | – | inactive: -0.081
EIF4E2 (UniProt O60573) | inactive: 0.054 | inactive: -0.015 | inactive: 0.085 | inactive: -0.048 | inactive: 0.075 | – | inactive: 0.245 | inactive: 0.019 | inactive: 0.003 | inactive: 0.079
EIF3G (UniProt O75821) | inactive: -0.039 | inactive: -0.058 | inactive: -0.034 | inactive: -0.004 | inactive: 0.028 | inactive: 0.084 | inactive: 0.022 | inactive: 0.064 | inactive: 0.015 | inactive: -0.05
EIF4G3 isoform 3 (UniProt O43432) | inactive: 0.012 | inactive: -0.092 | inactive: -0.062 | inactive: -0.016 | inactive: 0.01 | – | inactive: -0.114 | inactive: 0.146 | – | active: -0.515
EIF3G (UniProt K7ER90) | inactive: -0.005 | inactive: -0.003 | inactive: -0.19 | inactive: -0.101 | inactive: 0.12 | – | – | inactive: 0.087 | inactive: 0.025 | –
EMP3 (UniProt P54852) | inactive: -0.14 | inactive: -0.013 | inactive: -0.104 | inactive: 0.068 | inactive: 0.009 | – | inactive: 0.029 | inactive: 0.153 | inactive: 0.055 | inactive: -0.289
EML3 (UniProt Q32P44) | inactive: 0.006 | inactive: 0.041 | inactive: 0.118 | – | inactive: 0.018 | inactive: -0.018 | inactive: 0.12 | inactive: 0.055 | inactive: 0.002 | inactive: -0.19
EIF3J isoform 2 (UniProt O75822) | inactive: -0.094 | inactive: -0.197 | inactive: -0.102 | inactive: 0.023 | inactive: -0.041 | – | – | inactive: -0.11 | inactive: 0.002 | –
ELMO1 (UniProt Q92556) | inactive: -0.07 | – | inactive: -0.146 | inactive: -0.316 | inactive: 0.093 | – | – | inactive: 0.04 | inactive: -0.104 | –
EEF1AKNMT (UniProt Q8N6R0) | inactive: -0.025 | inactive: -0.061 | inactive: -0.109 | inactive: -0.017 | inactive: 0.038 | inactive: 0.161 | inactive: -0.002 | inactive: 0.059 | inactive: 0.055 | inactive: 0.031
EP400 (UniProt Q96L91) | inactive: 0.009 | – | inactive: 0.242 | – | inactive: 0.07 | inactive: 0.254 | – | inactive: 0.115 | – | –
EGFL7 (UniProt Q9UHF1) | inactive: -0.002 | inactive: 0.028 | – | – | inactive: -0.017 | inactive: -0.031 | – | – | inactive: 0.126 | –
ELP3 (UniProt Q9H9T3) | inactive: -0.049 | inactive: 0.015 | inactive: -0.054 | inactive: 0.012 | inactive: 0.009 | inactive: -0.008 | inactive: 0.018 | inactive: 0.015 | inactive: 0 | inactive: -0.027
EFR3A (UniProt Q14156) | inactive: -0.175 | – | inactive: 0.012 | inactive: -0.15 | inactive: 0.039 | – | – | inactive: -0.028 | inactive: 0.039 | –
EIF3E (UniProt P60228) | inactive: -0.092 | inactive: -0.041 | inactive: -0.064 | inactive: -0.039 | inactive: 0.091 | inactive: 0.038 | inactive: 0.07 | inactive: 0.075 | inactive: 0.2 | inactive: -0.094

Random excerpt: two entries already listed, in no set order.
Target | log2 fold change [1] | log2 fold change [2] | log2 fold change [3] | log2 fold change [4] | log2 fold change [5] | log2 fold change [6] | log2 fold change [7] | log2 fold change [8] | log2 fold change [9] | log2 fold change [10]
ENTPD6 (UniProt O75354) | inactive: -0.212 | inactive: 0.014 | inactive: -0.071 | – | inactive: -0.075 | inactive: -0.001 | inactive: 0.209 | inactive: -0.012 | inactive: 0.222 | inactive: 0.08
EGFL7 (UniProt Q9UHF1) | inactive: -0.002 | inactive: 0.028 | – | – | inactive: -0.017 | inactive: -0.031 | – | – | inactive: 0.126 | –
